Data as given in PubChem BioAssay AID248 (DTP/NCI, 2004).
The list is a part of this screen's results and no random one: it is rich in T/C values a quarter to a half above the control, in often repeated tests (any T/C) and in doses without a T/C. Other doses and runs of a compound stand elsewhere. T/C is the treated group as % of the vehicle group. Some doses have a count of surviving animals in place of a T/C: the source holds a T/C of zero for them, seemingly a mark for toxic or unscored doses. Some survivor counts are full or nearly so, which does not show that the dose was tolerated: survival well below the control is almost never listed, so the zero probably covers shortened survival too. Survivors were counted at the toxicity check, usually on the fifth day, unless a day is given; later deaths do not show. Schedule codes are those of the source, read here as Q, the interval in days (D) or hours (H), X, the number of doses. Some entries hold several experiments; their values stand side by side, smallest first. Counts like (3×) say how often a value occurs here. Where survival is the endpoint, this PubChem deposit counts one and a half times the control or more as active, and values a quarter to a half above the control carry no call in these data; other NCI protocols may use other cut-offs. Some T/C values are followed by the survivors on the day toxicity was checked, most often the fifth; without a count, all were alive then.

System: L1210 leukemia ip in BDF1 mice, survival T/C
Test: NCI In Vivo Anticancer Drug Screen. Data for tumor model L1210 Leukemia (intraperitoneal) in B6D2F1 (BDF1) mice
Conditions: higher T/C = longer survival

With `S=P(N1CC1)(N1CC1)N1CC1` as the compound, how does the survivor count (T/C endpoint: mean survival time, dose: 64.0 mg/kg/injection, schedule: Q04DX003 (ip), vehicle: saline) read?
The survivor count was 3 of 10, 5 of 10, 5 of 6.

What about the survivor count (T/C endpoint: mean survival time, dose: 96.0 mg/kg/injection, schedule: Q01DX001 (ip), vehicle: saline) of the same compound?
The survivor count was 0 of 10.

What about the survivor count (T/C endpoint: mean survival time, dose: 100.0 mg/kg/injection, schedule: Q01DX001 (ip), vehicle: saline) of the same compound?
Its survivor count is 6 of 6.

What about the survivor count (T/C endpoint: mean survival time, dose: 128.0 mg/kg/injection, schedule: Q01DX001 (oral), vehicle: saline) of the same compound?
Its survivor count is 3 of 10 and 10 of 10.

What about the survivor count (T/C endpoint: mean survival time, dose: 200.0 mg/kg/injection, schedule: Q01DX001 (ip), vehicle: saline) of the same compound?
The survivor count was 5 of 6.

What about the survivor count (T/C endpoint: mean survival time, dose: 256.0 mg/kg/injection, schedule: Q01DX001 (oral), vehicle: saline) of the same compound?
Its survivor count is 2 of 10 and 7 of 10.

What about the survivor count (T/C endpoint: mean survival time, dose: 512.0 mg/kg/injection, schedule: Q01DX001 (oral), vehicle: saline) of the same compound?
Its survivor count is 0 of 10 (2×).

What about the T/C (T/C endpoint: median survival time, dose: 2.0 mg/kg/injection, schedule: Q01DX009 (ip), vehicle: water, evaluated on day 5) of the same compound?
The T/C was 129 % of control.

And the T/C (T/C endpoint: median survival time, dose: 2.0 mg/kg/injection, schedule: Q01DX009 (ip), vehicle: water, evaluated on day 33)?
The T/C was 129 % of control [7 of 8 alive].

What about the T/C (T/C endpoint: median survival time, dose: 3.0 mg/kg/injection, schedule: Q01DX001 (ip), vehicle: water, evaluated on day 5) of the same compound?
The T/C was 99, 101, 104, 108, 117 % of control.

And the T/C (T/C endpoint: median survival time, dose: 3.0 mg/kg/injection, schedule: Q01DX001 (ip), vehicle: water, evaluated on day 7)?
Its T/C is 113 % of control.

And the T/C (T/C endpoint: median survival time, dose: 3.0 mg/kg/injection, schedule: Q01DX001 (ip), vehicle: water, evaluated on day 29)?
Its T/C is 101 % of control.

And the T/C (T/C endpoint: median survival time, dose: 3.0 mg/kg/injection, schedule: Q01DX001 (ip), vehicle: water, evaluated on day 30)?
The T/C was 100 and 108 % of control.

What about the T/C (T/C endpoint: median survival time, dose: 3.0 mg/kg/injection, schedule: Q01DX001 (ip), vehicle: water, evaluated on day 33) of the same compound?
Its T/C is 117 % of control.

And the T/C (T/C endpoint: median survival time, dose: 3.0 mg/kg/injection, schedule: Q01DX001 (ip), vehicle: water, evaluated on day 35)?
The T/C was 113 % of control.

What about the T/C (T/C endpoint: median survival time, dose: 3.0 mg/kg/injection, schedule: Q01DX001 (ip), vehicle: water, evaluated on day 47) of the same compound?
Its T/C is 104 % of control.

What about the T/C (T/C endpoint: median survival time, dose: 3.0 mg/kg/injection, schedule: Q01DX009 (ip), vehicle: distilled water + alcohol) of the same compound?
The T/C was 149 % of control.

What about the T/C (T/C endpoint: median survival time, dose: 3.0 mg/kg/injection, schedule: Q01DX009 (ip), vehicle: other) of the same compound?
Its T/C is 127 % of control.

And the T/C (T/C endpoint: median survival time, dose: 3.0 mg/kg/injection, schedule: Q01DX009 (ip), vehicle: water, evaluated on day 5)?
The T/C was 141 % of control.

What about the T/C (T/C endpoint: median survival time, dose: 3.0 mg/kg/injection, schedule: Q01DX009 (ip), vehicle: water, evaluated on day 33) of the same compound?
The T/C was 141 % of control.

What about the T/C (T/C endpoint: median survival time, dose: 6.0 mg/kg/injection, schedule: Q01DX001 (ip), vehicle: water, evaluated on day 5) of the same compound?
Its T/C is 110, 118, 121, 123, 126 % of control.

What about the T/C (T/C endpoint: median survival time, dose: 6.0 mg/kg/injection, schedule: Q01DX001 (ip), vehicle: water, evaluated on day 7) of the same compound?
The T/C was 99, 100, 102 (2×), 104, 125 % of control.

What about the T/C (T/C endpoint: median survival time, dose: 6.0 mg/kg/injection, schedule: Q01DX001 (ip), vehicle: water, evaluated on day 26) of the same compound?
The T/C was 100 % of control.

And the T/C (T/C endpoint: median survival time, dose: 6.0 mg/kg/injection, schedule: Q01DX001 (ip), vehicle: water, evaluated on day 29)?
Its T/C is 118 % of control.

And the T/C (T/C endpoint: median survival time, dose: 6.0 mg/kg/injection, schedule: Q01DX001 (ip), vehicle: water, evaluated on day 30)?
Its T/C is 110 and 126 % of control.

And the T/C (T/C endpoint: median survival time, dose: 6.0 mg/kg/injection, schedule: Q01DX001 (ip), vehicle: water, evaluated on day 33)?
Its T/C is 121 % of control.

And the T/C (T/C endpoint: median survival time, dose: 6.0 mg/kg/injection, schedule: Q01DX001 (ip), vehicle: water, evaluated on day 35)?
The T/C was 125 % of control.

And the T/C (T/C endpoint: median survival time, dose: 6.0 mg/kg/injection, schedule: Q01DX001 (ip), vehicle: water, evaluated on day 47)?
Its T/C is 123 % of control.

And the T/C (T/C endpoint: median survival time, dose: 6.0 mg/kg/injection, schedule: Q01DX001 (ip), vehicle: water, evaluated on day 63)?
Its T/C is 100 and 104 % of control.

And the survivor count (T/C endpoint: median survival time, dose: 6.0 mg/kg/injection, schedule: Q01DX009 (ip), vehicle: other)?
The survivor count was 8 of 8.

What about the T/C (T/C endpoint: median survival time, dose: 12.0 mg/kg/injection, schedule: Q01DX001 (ip), vehicle: water, evaluated on day 5) of the same compound?
Its T/C is 132, 134, 140, 154 % of control (2×).

And the T/C (T/C endpoint: median survival time, dose: 12.0 mg/kg/injection, schedule: Q01DX001 (ip), vehicle: water, evaluated on day 7)?
The T/C was 91, 95, 117 (2×), 129, 162 % of control.

And the T/C (T/C endpoint: median survival time, dose: 12.0 mg/kg/injection, schedule: Q01DX001 (ip), vehicle: water, evaluated on day 26)?
Its T/C is 91 % of control.

And the T/C (T/C endpoint: median survival time, dose: 12.0 mg/kg/injection, schedule: Q01DX001 (ip), vehicle: water, evaluated on day 29)?
The T/C was 132 % of control.

And the T/C (T/C endpoint: median survival time, dose: 12.0 mg/kg/injection, schedule: Q01DX001 (ip), vehicle: water, evaluated on day 30)?
The T/C was 134 and 154 % of control.

And the T/C (T/C endpoint: median survival time, dose: 12.0 mg/kg/injection, schedule: Q01DX001 (ip), vehicle: water, evaluated on day 33)?
The T/C was 140 % of control.

And the T/C (T/C endpoint: median survival time, dose: 12.0 mg/kg/injection, schedule: Q01DX001 (ip), vehicle: water, evaluated on day 35)?
The T/C was 162 % of control.

What about the T/C (T/C endpoint: median survival time, dose: 12.0 mg/kg/injection, schedule: Q01DX001 (ip), vehicle: water, evaluated on day 47) of the same compound?
Its T/C is 154 % of control.

What about the T/C (T/C endpoint: median survival time, dose: 12.0 mg/kg/injection, schedule: Q01DX001 (ip), vehicle: water, evaluated on day 63) of the same compound?
Its T/C is 95 and 129 % of control.

And the survivor count (T/C endpoint: median survival time, dose: 12.0 mg/kg/injection, schedule: Q01DX009 (ip), vehicle: other)?
The survivor count was 6 of 8.

And the T/C (T/C endpoint: median survival time, dose: 24.0 mg/kg/injection, schedule: Q01DX001 (ip), vehicle: water, evaluated on day 5)?
The T/C was 63, 86, 126 (2×), 159, 170, 179 % of control.

What about the T/C (T/C endpoint: median survival time, dose: 24.0 mg/kg/injection, schedule: Q01DX001 (ip), vehicle: water, evaluated on day 7) of the same compound?
Its T/C is 88, 91, 96, 145 % of control.

What about the T/C (T/C endpoint: median survival time, dose: 24.0 mg/kg/injection, schedule: Q01DX001 (ip), vehicle: water, evaluated on day 26) of the same compound?
Its T/C is 91 % of control.

And the T/C (T/C endpoint: median survival time, dose: 24.0 mg/kg/injection, schedule: Q01DX001 (ip), vehicle: water, evaluated on day 29)?
Its T/C is 179 % of control.

And the T/C (T/C endpoint: median survival time, dose: 24.0 mg/kg/injection, schedule: Q01DX001 (ip), vehicle: water, evaluated on day 30)?
The T/C was 86 and 159 % of control.

And the T/C (T/C endpoint: median survival time, dose: 24.0 mg/kg/injection, schedule: Q01DX001 (ip), vehicle: water, evaluated on day 33)?
The T/C was 170 % of control.

And the T/C (T/C endpoint: median survival time, dose: 24.0 mg/kg/injection, schedule: Q01DX001 (ip), vehicle: water, evaluated on day 63)?
Its T/C is 88 [7 of 8 alive] and 145 % of control.

And the survivor count (T/C endpoint: median survival time, dose: 24.0 mg/kg/injection, schedule: Q01DX001 (ip), vehicle: water)?
The survivor count was 5 of 8 and 7 of 8.

And the survivor count (T/C endpoint: median survival time, dose: 24.0 mg/kg/injection, schedule: Q01DX009 (ip), vehicle: other)?
Its survivor count is 0 of 8.

What about the T/C (T/C endpoint: median survival time, dose: 48.0 mg/kg/injection, schedule: Q01DX001 (ip), vehicle: water, evaluated on day 5) of the same compound?
Its T/C is 52, 59, 61, 159 % of control (2×).

What about the T/C (T/C endpoint: median survival time, dose: 48.0 mg/kg/injection, schedule: Q01DX001 (ip), vehicle: water, evaluated on day 7) of the same compound?
The T/C was 78, 83, 99, 105 % of control.

What about the T/C (T/C endpoint: median survival time, dose: 48.0 mg/kg/injection, schedule: Q01DX001 (ip), vehicle: water, evaluated on day 26) of the same compound?
Its T/C is 100 % of control.

What about the T/C (T/C endpoint: median survival time, dose: 48.0 mg/kg/injection, schedule: Q01DX001 (ip), vehicle: water, evaluated on day 63) of the same compound?
The T/C was 105 % of control [7 of 8 alive].

And the survivor count (T/C endpoint: median survival time, dose: 48.0 mg/kg/injection, schedule: Q01DX001 (ip), vehicle: water)?
The survivor count was 0 of 8, 1 of 8, 2 of 8, 4 of 8 (2×).
